## Library screen at single concentrations

Protein sequences, listed by entry. Tags and fused reporters are not part of them. Residues count along the entry.
UniProt I6X8D2, whole entry: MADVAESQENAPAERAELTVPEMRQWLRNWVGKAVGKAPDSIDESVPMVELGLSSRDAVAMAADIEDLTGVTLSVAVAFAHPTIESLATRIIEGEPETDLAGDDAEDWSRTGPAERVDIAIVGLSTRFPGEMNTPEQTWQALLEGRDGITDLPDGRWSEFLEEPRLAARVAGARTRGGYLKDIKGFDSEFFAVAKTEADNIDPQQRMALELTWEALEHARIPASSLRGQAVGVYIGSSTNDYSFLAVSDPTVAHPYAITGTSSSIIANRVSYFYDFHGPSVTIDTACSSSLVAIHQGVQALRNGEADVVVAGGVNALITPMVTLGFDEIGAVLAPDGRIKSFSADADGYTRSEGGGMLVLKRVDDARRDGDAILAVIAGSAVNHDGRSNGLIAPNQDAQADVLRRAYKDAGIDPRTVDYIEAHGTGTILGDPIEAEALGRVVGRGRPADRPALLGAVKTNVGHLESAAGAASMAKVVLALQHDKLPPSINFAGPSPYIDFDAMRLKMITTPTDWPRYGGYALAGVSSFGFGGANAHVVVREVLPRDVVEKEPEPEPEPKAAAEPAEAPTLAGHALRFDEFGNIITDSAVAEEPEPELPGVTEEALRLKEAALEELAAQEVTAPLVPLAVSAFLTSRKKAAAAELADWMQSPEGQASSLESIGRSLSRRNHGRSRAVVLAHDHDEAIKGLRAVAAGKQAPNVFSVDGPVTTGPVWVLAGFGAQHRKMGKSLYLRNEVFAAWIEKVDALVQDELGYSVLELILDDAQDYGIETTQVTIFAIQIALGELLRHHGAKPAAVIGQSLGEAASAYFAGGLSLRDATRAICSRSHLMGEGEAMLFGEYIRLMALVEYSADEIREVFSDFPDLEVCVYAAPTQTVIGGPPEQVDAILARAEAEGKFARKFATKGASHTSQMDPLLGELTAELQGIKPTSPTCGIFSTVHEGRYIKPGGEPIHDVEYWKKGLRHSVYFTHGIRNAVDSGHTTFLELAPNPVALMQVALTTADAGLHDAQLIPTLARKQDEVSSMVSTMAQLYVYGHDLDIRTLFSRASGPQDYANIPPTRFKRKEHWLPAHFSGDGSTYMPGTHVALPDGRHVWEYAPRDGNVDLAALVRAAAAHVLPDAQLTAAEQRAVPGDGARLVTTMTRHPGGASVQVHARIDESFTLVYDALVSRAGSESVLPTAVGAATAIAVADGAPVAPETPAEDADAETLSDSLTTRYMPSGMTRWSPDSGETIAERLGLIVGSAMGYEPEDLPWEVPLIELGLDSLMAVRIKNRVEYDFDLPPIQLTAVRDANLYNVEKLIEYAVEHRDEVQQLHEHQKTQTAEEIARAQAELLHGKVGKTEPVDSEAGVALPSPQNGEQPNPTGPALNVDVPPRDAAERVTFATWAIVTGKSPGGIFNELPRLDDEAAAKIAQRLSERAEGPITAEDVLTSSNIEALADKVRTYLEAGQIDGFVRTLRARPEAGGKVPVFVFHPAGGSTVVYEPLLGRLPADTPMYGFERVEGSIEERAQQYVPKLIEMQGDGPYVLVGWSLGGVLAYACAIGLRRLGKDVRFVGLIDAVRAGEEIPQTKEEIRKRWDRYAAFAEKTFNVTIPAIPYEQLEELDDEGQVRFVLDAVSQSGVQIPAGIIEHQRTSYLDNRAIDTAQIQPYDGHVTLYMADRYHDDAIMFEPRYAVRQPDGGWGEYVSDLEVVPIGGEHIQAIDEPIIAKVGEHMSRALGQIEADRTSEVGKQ
UniProt P9WNZ1, whole entry: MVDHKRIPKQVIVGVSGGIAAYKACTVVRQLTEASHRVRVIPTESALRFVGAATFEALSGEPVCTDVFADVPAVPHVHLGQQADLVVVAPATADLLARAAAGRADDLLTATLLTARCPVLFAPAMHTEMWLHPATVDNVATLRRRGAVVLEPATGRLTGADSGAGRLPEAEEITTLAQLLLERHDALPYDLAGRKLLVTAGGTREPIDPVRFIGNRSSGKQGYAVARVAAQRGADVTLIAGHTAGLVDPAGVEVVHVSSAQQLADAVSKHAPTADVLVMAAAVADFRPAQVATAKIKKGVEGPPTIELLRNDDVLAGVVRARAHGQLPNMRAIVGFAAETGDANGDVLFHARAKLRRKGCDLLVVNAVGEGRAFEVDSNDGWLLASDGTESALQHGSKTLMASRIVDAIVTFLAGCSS
UniProt Q8IDJ8, 1-583: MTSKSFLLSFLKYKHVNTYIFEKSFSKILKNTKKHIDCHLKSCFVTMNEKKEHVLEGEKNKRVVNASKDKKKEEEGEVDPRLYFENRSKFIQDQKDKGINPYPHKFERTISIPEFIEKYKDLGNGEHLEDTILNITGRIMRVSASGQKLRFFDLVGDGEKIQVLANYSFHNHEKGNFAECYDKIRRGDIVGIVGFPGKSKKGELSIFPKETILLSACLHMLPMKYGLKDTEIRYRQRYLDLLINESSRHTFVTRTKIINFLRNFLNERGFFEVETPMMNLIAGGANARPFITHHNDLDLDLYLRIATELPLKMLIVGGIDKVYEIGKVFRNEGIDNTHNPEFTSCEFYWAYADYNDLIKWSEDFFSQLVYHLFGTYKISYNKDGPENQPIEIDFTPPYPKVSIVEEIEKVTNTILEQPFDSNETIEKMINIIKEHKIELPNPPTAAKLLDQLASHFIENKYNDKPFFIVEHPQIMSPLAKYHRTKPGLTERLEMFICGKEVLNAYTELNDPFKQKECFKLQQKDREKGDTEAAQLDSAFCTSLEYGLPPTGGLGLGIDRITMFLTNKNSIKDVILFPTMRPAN
UniProt Q4DA54, 1-478: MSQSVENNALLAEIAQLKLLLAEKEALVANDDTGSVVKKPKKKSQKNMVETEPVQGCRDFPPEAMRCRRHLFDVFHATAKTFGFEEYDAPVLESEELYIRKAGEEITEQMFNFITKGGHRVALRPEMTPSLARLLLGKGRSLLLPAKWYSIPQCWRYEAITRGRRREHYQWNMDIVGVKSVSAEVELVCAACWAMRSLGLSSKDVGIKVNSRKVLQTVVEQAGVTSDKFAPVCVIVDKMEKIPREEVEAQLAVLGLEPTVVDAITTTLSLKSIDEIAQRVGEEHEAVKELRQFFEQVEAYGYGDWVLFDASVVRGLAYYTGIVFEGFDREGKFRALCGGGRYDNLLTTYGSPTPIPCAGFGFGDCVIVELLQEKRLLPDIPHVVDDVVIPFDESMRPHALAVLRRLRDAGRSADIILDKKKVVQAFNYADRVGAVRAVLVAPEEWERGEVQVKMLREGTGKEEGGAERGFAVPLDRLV

Pks13 thioesterase: 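Polyketide synthase Pks13, Mycobacterium tuberculosis (UniProt I6X8D2). Enzyme assay of the thioesterase domain of polyketide synthase 13; the read-out is not stated. Compounds at 30 µM. Higher reads as stronger inhibition (inferred from which compounds were picked for retests). Size under these conditions: about 67,000 compounds, about 300 of them at 50% or above in at least one test.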
CoaBC: 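Coenzyme A biosynthesis protein CoaBC, Mycobacterium tuberculosis (UniProt P9WNZ1). Enzyme assay of CoaBC with a phosphate dye (Biomol Green) read at 650 nm. Tested at 30 µM. Direction is inferred from only a few compounds that gave an IC50; most scored high, so higher reads as stronger inhibition. Most strong results did not repeat in a second test. Of about 67,000 compounds tested this way, about 40 (0.06%) reached 50% or more in at least one test.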
PfKRS1: 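Lysine-tRNA ligase, Plasmodium falciparum 3D7 (UniProt Q8IDJ8). Enzyme assay of the cytosolic lysyl-tRNA synthetase in 384-well plates, read by luminescence. Compounds at 30 µM. Direction is inferred from only a few compounds that gave an IC50; most scored high, so higher reads as stronger inhibition. Of about 69,000 compounds tested this way, about 49 (0.071%) reached 50% or more in at least one test.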
TcHisRS: 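Histidine-tRNA ligase, Trypanosoma cruzi CL Brener (UniProt Q4DA54). Enzyme assay of histidyl-tRNA synthetase; the read-out is not stated. Tested at 30 µM. The record gives no direction; compounds that gave an IC50 in retests scored well above the rest, so higher reads as stronger inhibition. Size under these conditions: about 69,000 compounds, about 31 of them at 50% or above in at least one test.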

Each number is a percent effect as filed.
The record does not define 0% and 100%; most values in the screen are far below 50% and negative numbers occur (in some assays of this library far below -100).
The compounds are a random part of those screened.
A dash means the value is not listed here; it may have been measured.

SMILES | Pks13 thioesterase | CoaBC | PfKRS1 | TcHisRS
O=C1c2cnc(N3CCCCC3)nc2CN1c1ccc2c(c1)OCO2 | -8.397% | 6.315% | -1.683% | 0%
O=C(COc1coc(CN2CCCCC2)cc1=O)Nc1cccc(Cl)c1 | -8.935% | -2.778% | 3.297% | 6.433%
CC1CCCCN1C(=O)c1ccc(Br)s1 (stereo not drawn) | -15.64% | -12.22% | 3.627% | 1.587%
CCn1c(CN(C)C)nnc1C1CCN(Cc2ccc(C)s2)CC1 | -7.827% | 0.3619% | 1.459% | -3.518%
CCc1ccc(C(=O)Nc2cc(N3CCNC3=O)ccc2Cl)o1 | -34.98% | -0.4348% | 2.453% | 4.813%
COc1ccc(CNC(=O)Nc2ccc(S(=O)(=O)C(F)F)cc2)cc1 | -15.37% | - | 1.846% | -4.459%
O=C(CCCN1CCOC1=O)Nc1cnn(-c2ccccc2Cl)c1 | -3.002% | 4.847% | 0.5404% | 2.924%
Cc1nc2ccccc2nc1CN(C)CC1CCCN1c1cccnn1 (stereo not drawn) | -12.95% | 12.05% | -1.3% | 1.132%
C[C@@H]1CN(CCOc2ccc(F)cc2)CC[C@@]1(O)C1CCOCC1 | -3.322% | 3.03% | -2.3% | 1.01%
Cc1cc(C)n(CC2CCCN2C(=O)c2ccc(NC3CC3)nc2)n1 (stereo not drawn) | -20.66% | 6.832% | -3.816% | 3.152%
CC(C)N(C)C(=O)C1=NOC2(CCN(C(=O)NCc3cccnc3)C2)C1 (stereo not drawn) | -1.796% | 10.75% | 5.898% | 1.961%
COC(=O)N1CCC2(CC1)CC(c1ccccc1)CN(C)C2 (stereo not drawn) | -4.787% | 7.54% | 6.775% | 2.041%
Cc1ccc(CN2CCC(n3cc(CN4CCC(O)CC4)nn3)CC2)s1 | -14.89% | 6.695% | 5.283% | 0%
CCC1CN(c2nnc(C)c(C)c2C#N)CCO1 (stereo not drawn) | -8.064% | 0.266% | 4.354% | 4.183%
CNC(=O)C1(N2CCC[C@H]2C(=O)NC2CCOCC2)CCOCC1 | -28.28% | -8.352% | 5.834% | 9.901%
Cc1[nH]n(-c2ccccc2)c2nnc(N)c1-2 | 1.204% | 6.09% | -0.04925% | -3.941%
CC(C)N1CCCC(C(=O)NC(C)(C)c2nnc(N)s2)C1 (stereo not drawn) | -40.81% | 7.066% | -0.04528% | 5.682%
O=C1[C@H]2CN(C3CCOCC3)C[C@H]2CN1Cc1ccncc1 | -27.42% | 7.009% | 5.067% | 7.609%
O=C1CC(c2ccsc2)c2cnn(C3CCCC3)c2N1 (stereo not drawn) | 5% | 6.901% | 8.365% | 4.95%
Cc1cc(C)c(CNC(=O)NCCc2cccnc2)c(=O)[nH]1 | 6.616% | -4.024% | 1.905% | 1.807%
Cc1ccc(CN2CCO[C@@H]3C[C@@H](C(=O)NC(C)C)C[C@H]32)o1 | -32.02% | 2.581% | 2.908% | 1.493%
CCn1nc(C)c2ncnc(NCC(=O)N3CCOCC3)c21 | -14.92% | 0.9421% | 5.889% | -0.5464%
O=C(N1CCOCC1)N1CCc2ncnc(Oc3cccnc3)c2CC1 | -9.676% | -5.484% | 6.095% | 7.463%
CC(C)(C)CN1CCC[C@H]1c1nc(-c2cncnc2N)no1 | 20.88% | 11.7% | 8.499% | 4.348%
COCC(=O)Nc1ccc(C)cc1-c1nc(C2CC2)no1 | 7.579% | 0.6075% | 11.57% | 1.98%
O=C(c1ccc(F)cc1)N1CCN2C[C@H](OCc3cccnc3)C[C@H]2C1 | 4.48% | 6.25% | 2.082% | 9.804%
Cc1cnc(CCNc2cccc(CC3CCCNC3)n2)s1 (stereo not drawn) | 5.479% | 6.994% | 2.661% | -3.876%
CCCOc1cccc(CNC(=O)CN2CCN(C)CC2C)c1 (stereo not drawn) | -10.07% | 7.42% | 1.52% | -4.215%
CCn1cc2c(n1)C(COC)CN(Cc1ccoc1)C2 (stereo not drawn) | -20.41% | 1.426% | 0.2282% | 5.747%
CN(C)c1cc(CNC(=O)c2cc(F)ccc2F)ccn1 | 2.262% | -7.045% | -1.153% | 6.34%
CCCc1nc(C(=O)NCCN2CCC(c3ccccc3C)C2)cs1 (stereo not drawn) | 2.686% | 2.805% | 5.785% | 10.24%
CCNC(=O)C(C)NC(=O)Nc1ccccc1SCC (stereo not drawn) | 10.44% | 0.7371% | 1.28% | 7.059%
Cc1cc(C(=O)N2CCOC(c3nc(C(C)C)n[nH]3)C2)no1 (stereo not drawn) | -15.65% | 4.042% | 1.601% | 3.468%
Cc1cccc2nc(CNC(=O)N3CCC(N4CC=CC4)C3)cn12 (stereo not drawn) | -6.861% | 0% | 10.48% | 0%
Cc1nc(N)cc(C2CCN2CCOc2ccccc2)n1 (stereo not drawn) | 4.899% | -6.311% | 2.278% | 5.747%
Cc1cc(C)c2nc(C)cc(C(=O)N3CC(O)CO3)c2c1 (stereo not drawn) | -16.72% | -3.066% | 2.079% | 0%
CC(C)n1ccnc1C1CCN(c2nccc(C(F)(F)F)n2)CC1 | -2.251% | 7.118% | -0.9128% | 5.217%
CCOCCNCc1cc(O)c2cc(C)ccc2n1 | -28.64% | 7.002% | 0.5973% | 13.1%
O=C(NCCc1ccncc1)C1CCN(Cc2ccco2)CC1 | -16.6% | -8.482% | -1.913% | 3.734%
Cc1cnc(CNC(=O)NC2CCCN(c3ccccc3F)C2)s1 (stereo not drawn) | 24.77% | 10.13% | 6.048% | -3.448%
O=C(NC1CCCCC1)N1CCC(n2cc(-c3ccccn3)nn2)CC1 | -3.889% | 3.808% | -1.266% | 4.762%
CC(O)CN1CCC(CN(C)CCC(=O)NC2CCCC2)CC1 (stereo not drawn) | 8.953% | -6.25% | 6.363% | 8.287%
O=C(Cc1csc(-c2ccccn2)n1)NCCCN1CCCCCC1=O | -1.046% | 2.177% | 2.519% | 3.067%
CCc1cccnc1NCc1cnc(N2CCOCC2)nc1 | -14.77% | 4.97% | 2.971% | 2.646%
CC(C)C(C(=O)NCc1ccccc1-n1cccn1)N(C)C (stereo not drawn) | -0.6603% | -6.876% | 5.085% | 5.172%
O=C(O)c1nnn(-c2cccc(C(F)(F)F)c2)c1C1CC1 | -10.31% | 5.102% | 2.634% | -1.339%

5 of the entries, repeated:

| SMILES | Pks13 thioesterase | CoaBC | PfKRS1 | TcHisRS |
|---|---|---|---|---|
| `CCNC(=O)C(C)NC(=O)Nc1ccccc1SCC` (stereo not drawn) | 10.44% | 0.7371% | 1.28% | 7.059% |
| `CCn1nc(C)c2ncnc(NCC(=O)N3CCOCC3)c21` | -14.92% | 0.9421% | 5.889% | -0.5464% |
| `Cc1nc2ccccc2nc1CN(C)CC1CCCN1c1cccnn1` (stereo not drawn) | -12.95% | 12.05% | -1.3% | 1.132% |
| `CC1CCCCN1C(=O)c1ccc(Br)s1` (stereo not drawn) | -15.64% | -12.22% | 3.627% | 1.587% |
| `Cc1cnc(CNC(=O)NC2CCCN(c3ccccc3F)C2)s1` (stereo not drawn) | 24.77% | 10.13% | 6.048% | -3.448% |

Source: ChEMBL document CHEMBL3988442, “University of Dundee, Small-Polar-MMV Screening Library” (2021).